Reference: article PMC10152663, “SEC14-GOLD protein PATELLIN2 binds IRON-REGULATED TRANSPORTER1 linking root iron uptake to vitamin E” (Plant Physiology, 2022)

Target: T1, PATL2-HA3, triple hemagglutinin-tagged PATELLIN2 (pro35S::PATL2-HA3 Arabidopsis roots) (Arabidopsis thaliana) (UniProt Q56ZI2)
T1 sequence: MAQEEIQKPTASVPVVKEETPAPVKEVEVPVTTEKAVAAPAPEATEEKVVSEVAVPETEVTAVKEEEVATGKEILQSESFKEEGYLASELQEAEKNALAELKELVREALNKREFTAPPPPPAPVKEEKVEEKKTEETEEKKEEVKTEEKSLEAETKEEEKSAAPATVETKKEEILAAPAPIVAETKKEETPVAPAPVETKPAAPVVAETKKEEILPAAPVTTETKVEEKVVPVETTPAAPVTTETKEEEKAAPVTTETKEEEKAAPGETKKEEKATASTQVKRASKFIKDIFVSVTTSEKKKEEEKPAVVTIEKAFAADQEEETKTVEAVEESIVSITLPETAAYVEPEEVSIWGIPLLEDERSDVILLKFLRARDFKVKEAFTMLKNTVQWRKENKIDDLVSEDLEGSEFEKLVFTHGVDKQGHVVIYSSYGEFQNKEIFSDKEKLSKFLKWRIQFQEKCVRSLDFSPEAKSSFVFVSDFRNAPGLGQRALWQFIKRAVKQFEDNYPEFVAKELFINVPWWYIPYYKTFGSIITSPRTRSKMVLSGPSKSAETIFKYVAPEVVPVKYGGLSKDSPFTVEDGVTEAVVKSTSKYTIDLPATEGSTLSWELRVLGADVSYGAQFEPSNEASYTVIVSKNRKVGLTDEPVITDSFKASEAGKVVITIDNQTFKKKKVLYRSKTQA
Assay: affinity purification with mass spectrometry; anti-HA magnetic beads on roots of pro35S::PATL2-HA3 and wild-type Arabidopsis, 14 + 3 d system, 0 µM Fe and 50 µM Fe, 5 biological replicates; label-free quantification, enrichment against wild type

B1: PATELLIN1 (PATL1) (protein, UniProt Q56WK6 1-573)
chain: MAQEEVQKSADVAAAPVVKEKPITDKEVTIPTPVAEKEEVAAPVSDEKAVPEKEVTPEKEAPAAEAEKSVSVKEEETVVVAEKVVVLTAEEVQKKALEEFKELVREALNKREFTAPVTPVKEEKTEEKKTEEETKEEEKTEEKKEETTTEVKVEEEKPAVPAAEEEKSSEAAPVETKSEEKPEEKAEVTTEKASSAEEDGTKTVEAIEESIVSVSPPESAVAPVVVETVAVAEAEPVEPEEVSIWGVPLLQDERSDVILTKFLRARDFKVKEALTMLKNTVQWRKENKIDELVESGEEVSEFEKMVFAHGVDKEGHVVIYSSYGEFQNKELFSDKEKLNKFLSWRIQLQEKCVRAIDFSNPEAKSSFVFVSDFRNAPGLGKRALWQFIRRAVKQFEDNYPEFAAKELFINVPWWYIPYYKTFGSIITSPRTRSKMVLAGPSKSADTIFKYIAPEQVPVKYGGLSKDTPLTEETITEAIVKPAANYTIELPASEACTLSWELRVLGADVSYGAQFEPTTEGSYAVIVSKTRKIGSTDEPVITDSFKVGEPGKIVITIDNQTSKKKKVLYRFKTQ
binding: binds

B2: PATELLIN4 (PATL4) (protein, UniProt Q94C59 1-540)
chain: MTAEVKVEEKQVESEVVIAPAVVPEETTVKAVVEETKVEEDESKPEGVEKSASFKEESDFFADLKESEKKALSDLKSKLEEAIVDNTLLKTKKKESSPMKEKKEEVVKPEAEVEKKKEEAAEEKVEEEKKSEAVVTEEAPKAETVEAVVTEEIIPKEEVTTVVEKVEEETKEEEKKTEDVVTEEVKAETIEVEDEDESVDKDIELWGVPLLPSKGAESTDVILLKFLRARDFKVNEAFEMLKKTLKWRKQNKIDSILGEEFGEDLATAAYMNGVDRESHPVCYNVHSEELYQTIGSEKNREKFLRWRFQLMEKGIQKLNLKPGGVTSLLQIHDLKNAPGVSRTEIWVGIKKVIETLQDNYPEFVSRNIFINVPFWFYAMRAVLSPFLTQRTKSKFVVARPAKVRETLLKYIPADELPVQYGGFKTVDDTEFSNETVSEVVVKPGSSETIEIPAPETEGTLVWDIAVLGWEVNYKEEFVPTEEGAYTVIVQKVKKMGANEGPIRNSFKNSQAGKIVLTVDNVSGKKKKVLYRYRTKTESSS
binding: binds

B3: ascorbate peroxidase (APX1) (enzyme, UniProt Q05431 1-250)
chain: MTKNYPTVSEDYKKAVEKCRRKLRGLIAEKNCAPIMVRLAWHSAGTFDCQSRTGGPFGTMRFDAEQAHGANSGIHIALRLLDPIREQFPTISFADFHQLAGVVAVEVTGGPDIPFHPGREDKPQPPPEGRLPDATKGCDHLRDVFAKQMGLSDKDIVALSGAHTLGRCHKDRSGFEGAWTSNPLIFDNSYFKELLSGEKEGLLQLVSDKALLDDPVFRPLVEKYAADEDAFFADYAEAHMKLSELGFADA
binding: binds

B4: catalase (CAT3) (enzyme, UniProt Q42547 1-492)
chain: MDPYKYRPSSAYNAPFYTTNGGAPVSNNISSLTIGERGPVLLEDYHLIEKVANFTRERIPERVVHARGISAKGFFEVTHDISNLTCADFLRAPGVQTPVIVRFSTVVHERASPETMRDIRGFAVKFYTREGNFDLVGNNTPVFFIRDGIQFPDVVHALKPNPKTNIQEYWRILDYMSHLPESLLTWCWMFDDVGIPQDYRHMEGFGVHTYTLIAKSGKVLFVKFHWKPTCGIKNLTDEEAKVVGGANHSHATKDLHDAIASGNYPEWKLFIQTMDPADEDKFDFDPLDVTKIWPEDILPLQPVGRLVLNRTIDNFFNETEQLAFNPGLVVPGIYYSDDKLLQCRIFAYGDTQRHRLGPNYLQLPVNAPKCAHHNNHHEGFMNFMHRDEEINYYPSKFDPVRCAEKVPTPTNSYTGIRTKCVIKKENNFKQAGDRYRSWAPDRQDRFVKRWVEILSEPRLTHEIRGIWISYWSQADRSLGQKLASRLNVRPSI
binding: binds

B5: TRX3 (protein, UniProt Q42403 1-118)
chain: MAAEGEVIACHTVEDWTEKLKAANESKKLIVIDFTATWCPPCRFIAPVFADLAKKHLDVVFFKVDVDELNTVAEEFKVQAMPTFIFMKEGEIKETVVGAAKEEIIANLEKHKTVVAAA
binding: binds

Results are given in words; binding and its absence hold for the method and conditions named. Binding seen in cells or lysates may run through a third protein. A yes stands for co-enrichment or nearness to the bait. Other partners may have been found. Sequences can lack the tags named with a protein.
